Here are results for one substance from article PMC4416315.

Protein sequences, listed by entry. Tags and fused reporters are not part of them. Lines headed by an entry give the natural chain unless they say otherwise; changes in a name come on top.
UniProt O75925: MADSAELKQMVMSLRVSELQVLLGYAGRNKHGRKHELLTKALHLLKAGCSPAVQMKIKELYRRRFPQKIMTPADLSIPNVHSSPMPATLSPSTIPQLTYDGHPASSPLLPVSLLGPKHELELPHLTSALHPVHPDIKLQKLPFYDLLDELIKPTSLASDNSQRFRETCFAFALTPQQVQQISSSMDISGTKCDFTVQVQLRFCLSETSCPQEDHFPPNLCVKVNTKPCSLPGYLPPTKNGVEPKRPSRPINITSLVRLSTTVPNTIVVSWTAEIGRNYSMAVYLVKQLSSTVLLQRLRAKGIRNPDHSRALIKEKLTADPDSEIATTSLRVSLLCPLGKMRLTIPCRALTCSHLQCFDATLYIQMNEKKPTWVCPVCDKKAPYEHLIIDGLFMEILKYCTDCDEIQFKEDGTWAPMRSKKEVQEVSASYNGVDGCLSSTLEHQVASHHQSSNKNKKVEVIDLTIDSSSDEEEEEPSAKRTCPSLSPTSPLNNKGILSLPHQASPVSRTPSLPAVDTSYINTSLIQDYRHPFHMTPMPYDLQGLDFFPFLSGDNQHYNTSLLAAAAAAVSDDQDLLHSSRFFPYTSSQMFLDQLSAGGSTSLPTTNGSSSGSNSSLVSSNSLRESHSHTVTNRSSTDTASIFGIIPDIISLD
UniProt Q9NVI1: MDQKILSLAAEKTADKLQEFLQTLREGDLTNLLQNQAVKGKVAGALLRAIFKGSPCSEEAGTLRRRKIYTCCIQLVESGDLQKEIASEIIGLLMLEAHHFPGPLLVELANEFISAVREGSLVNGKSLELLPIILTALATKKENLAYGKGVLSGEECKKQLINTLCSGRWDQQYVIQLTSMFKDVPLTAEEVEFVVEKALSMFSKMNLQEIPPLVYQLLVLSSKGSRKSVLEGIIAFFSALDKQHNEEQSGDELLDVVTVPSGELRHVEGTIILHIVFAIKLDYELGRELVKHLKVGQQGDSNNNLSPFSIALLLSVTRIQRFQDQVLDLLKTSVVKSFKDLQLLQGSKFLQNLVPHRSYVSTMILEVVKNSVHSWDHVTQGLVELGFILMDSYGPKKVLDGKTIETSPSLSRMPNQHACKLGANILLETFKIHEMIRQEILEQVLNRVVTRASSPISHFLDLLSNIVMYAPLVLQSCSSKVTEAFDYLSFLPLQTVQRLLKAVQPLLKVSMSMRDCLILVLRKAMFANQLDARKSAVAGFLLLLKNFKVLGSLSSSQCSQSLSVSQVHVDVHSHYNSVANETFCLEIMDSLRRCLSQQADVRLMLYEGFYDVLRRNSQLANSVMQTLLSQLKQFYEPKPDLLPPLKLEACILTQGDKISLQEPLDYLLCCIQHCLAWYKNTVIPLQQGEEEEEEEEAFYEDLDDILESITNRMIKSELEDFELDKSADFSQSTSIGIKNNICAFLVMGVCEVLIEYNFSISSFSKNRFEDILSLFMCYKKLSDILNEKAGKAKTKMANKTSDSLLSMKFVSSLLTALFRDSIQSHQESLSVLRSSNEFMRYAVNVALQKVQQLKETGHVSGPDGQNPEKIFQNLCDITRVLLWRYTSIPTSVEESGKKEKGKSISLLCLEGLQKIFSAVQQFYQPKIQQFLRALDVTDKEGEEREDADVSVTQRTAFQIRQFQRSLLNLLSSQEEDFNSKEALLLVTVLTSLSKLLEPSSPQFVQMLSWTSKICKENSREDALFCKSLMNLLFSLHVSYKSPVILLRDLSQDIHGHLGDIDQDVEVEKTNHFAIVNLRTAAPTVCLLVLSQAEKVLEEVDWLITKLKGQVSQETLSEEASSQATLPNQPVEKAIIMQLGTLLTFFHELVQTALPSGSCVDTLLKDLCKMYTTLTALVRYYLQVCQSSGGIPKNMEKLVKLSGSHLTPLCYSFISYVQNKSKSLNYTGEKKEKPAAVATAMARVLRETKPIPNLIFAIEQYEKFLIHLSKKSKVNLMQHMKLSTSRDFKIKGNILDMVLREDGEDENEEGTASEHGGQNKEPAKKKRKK

These are yes or no findings as the source states them, for the method shown. Binding seen in cells or lysates may run through a third protein. Some binding calls cover weakened binding; strength is not graded here. For some assays here: Sequences can lack the tags named with a protein.

One assay has as its target T1, Strep-HA-PIAS4 (UniProt Q8N2W9).
T1 sequence: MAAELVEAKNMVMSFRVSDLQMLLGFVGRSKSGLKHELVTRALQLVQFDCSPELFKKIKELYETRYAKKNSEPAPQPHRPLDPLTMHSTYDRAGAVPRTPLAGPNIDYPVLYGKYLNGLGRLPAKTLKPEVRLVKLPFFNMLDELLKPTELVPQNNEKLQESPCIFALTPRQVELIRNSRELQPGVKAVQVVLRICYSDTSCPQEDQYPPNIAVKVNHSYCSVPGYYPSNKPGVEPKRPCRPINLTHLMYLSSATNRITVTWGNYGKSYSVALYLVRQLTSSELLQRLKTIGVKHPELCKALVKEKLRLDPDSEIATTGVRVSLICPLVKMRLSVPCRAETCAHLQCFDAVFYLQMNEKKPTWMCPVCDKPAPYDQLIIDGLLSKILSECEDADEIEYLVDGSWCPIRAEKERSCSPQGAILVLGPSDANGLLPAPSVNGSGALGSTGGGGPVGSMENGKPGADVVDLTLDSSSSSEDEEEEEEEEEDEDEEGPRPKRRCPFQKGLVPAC
As to the kind of experiment: pull-down; Strep-HA-PIAS4 complexes purified with Strep-Tactin Sepharose from transfected U2OS cells under replication stress (indicated agents, 24 hr); immunoblotting.

The target in the next assay is PIAS1 (UniProt O75925). Kind of assay: co-IP; immunoprecipitates of PIAS1 (Figure S2E); format not shown.

On to “FANCI/FANCD2 complex (ID complex) (from UniProt Q9NVI1 1-1328; Q9BXW9 1-1451)”, for which the binding result with Strep-HA-PIAS4 and with PIAS1 was “binds” each time.
